# Results taken from the supplement of paper PMC8728848.
# The other results are listed elsewhere or left out.
# Columns and labels:
# Assay in all cases: glycan array binding signal (z-score within array); higher = stronger binding
# Details in all cases: glycan notation: IUPAC condensed, linker removed
# [1] = biological target: GlcNAc(b1-4)GlcNAc(b1-4)GlcNAc(b1-4)GlcNAc(b1-4)GlcNAc(b1-4)GlcNAc
# Method in brief: (§1)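 Glycan array data were curated from 3228 arrays in the Consortium for Functional Glycomics database and kept only where the protein sequence was available. Glycan names were converted to IUPAC-condensed notation, and columns mapping to the same glycan were averaged. The binding signal is a within-array Z-score, averaged across arrays of the same protein sequence at different concentrations or buffers and across linkers. Negative Z-scores can be read as non-binding.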
# [2] = biological target: GlcNAc(b1-4)[GlcNAc(b1-6)]GalNAc
# Method in brief: as §1
# [3] = biological target: GlcNAc(b1-6)Gal(b1-4)GlcNAc
# Method in brief: as §1
# GlcNAc(b1-6)GalNAc = biological target: GlcNAc(b1-6)GalNAc
# Method in brief: as §1
# [4] = biological target: GlcNAc6S(b1-3)Gal(b1-4)GlcNAc
# Method in brief: as §1
# Kdn(a2-3)Gal(b1-3)GalNAc = biological target: Kdn(a2-3)Gal(b1-3)GalNAc
# Method in brief: as §1
# Kdn(a2-3)Gal(b1-3)GlcNAc = biological target: Kdn(a2-3)Gal(b1-3)GlcNAc
# Method in brief: as §1
# Kdn(a2-3)Gal(b1-4)Glc = biological target: Kdn(a2-3)Gal(b1-4)Glc
# Method in brief: as §1
# Kdn(a2-3)Gal(b1-4)GlcNAc = biological target: Kdn(a2-3)Gal(b1-4)GlcNAc
# Method in brief: as §1
# [5] = biological target: Kdn(a2-3)Gal(b1-4)[Fuc(a1-3)]GlcNAc
# Method in brief: as §1
# Kdn(a2-6)Gal(b1-4)GlcNAc = biological target: Kdn(a2-6)Gal(b1-4)GlcNAc
# Method in brief: as §1
# [6] = biological target: Man(a1-2)Man(a1-2)Man(a1-3)Man
# Method in brief: as §1
# [7] = biological target: Man(a1-2)Man(a1-2)Man(a1-6)[Man(a1-3)]Man
# Method in brief: as §1
# Man(a1-2)Man(a1-3)Man = biological target: Man(a1-2)Man(a1-3)Man
# Method in brief: as §1
# [8] = biological target: Man(a1-2)Man(a1-3)[Man(a1-2)Man(a1-6)]Man
# Method in brief: as §1
# [9] = biological target: Man(a1-2)Man(a1-3)[Man(a1-2)Man(a1-6)]Man(a1-6)[Man(a1-2)Man(a1-2)Man(a1-3)]Man
# Method in brief: as §1
# [10] = biological target: Man(a1-2)Man(a1-3)[Man(a1-2)Man(a1-6)]Man(a1-6)[Man(a1-2)Man(a1-2)Man(a1-3)]Man(b1-4)GlcNAc(b1-4)GlcNAc
# Method in brief: as §1
# [11] = biological target: Man(a1-2)Man(a1-3)[Man(a1-6)]Man(a1-6)[Man(a1-2)Man(a1-3)]Man(b1-4)GlcNAc(b1-4)GlcNAc
# Method in brief: as §1
# [12] = biological target: Man(a1-2)Man(a1-6)[Man(a1-3)]Man(a1-6)[Man(a1-2)Man(a1-2)Man(a1-3)]Man
# Method in brief: as §1
# [13] = biological target: Man(a1-2)Man(a1-6)[Man(a1-3)]Man(a1-6)[Man(a1-2)Man(a1-2)Man(a1-3)]Man(b1-4)GlcNAc(b1-4)GlcNAc
# Method in brief: as §1
# Man(a1-3)[Man(a1-6)]Man = biological target: Man(a1-3)[Man(a1-6)]Man
# Method in brief: as §1
# [14] = biological target: Man(a1-3)[Man(a1-6)]Man(a1-6)[Man(a1-2)Man(a1-3)]Man(b1-4)GlcNAc(b1-4)GlcNAc
# Method in brief: as §1
# [15] = biological target: Man(a1-3)[Man(a1-6)]Man(a1-6)[Man(a1-3)]Man
# Method in brief: as §1
# [16] = biological target: Man(a1-3)[Man(a1-6)]Man(a1-6)[Man(a1-3)]Man(b1-4)GlcNAc(b1-4)GlcNAc
# Method in brief: as §1
# [17] = biological target: Man(a1-3)[Man(a1-6)]Man(b1-4)GlcNAc(b1-4)GlcNAc
# Method in brief: as §1
# [18] = biological target: Man(a1-3)[Man(a1-6)]Man(b1-4)GlcNAc(b1-4)[Fuc(a1-6)]GlcNAc
# Method in brief: as §1
# Man(a1-6)Man = biological target: Man(a1-6)Man
# Method in brief: as §1
# Man(b1-4)GlcNAc = biological target: Man(b1-4)GlcNAc
# Method in brief: as §1
# MurNAc(b1-4)GlcNAc = biological target: MurNAc(b1-4)GlcNAc
# Method in brief: as §1
# Neu5Ac(a2-3)Gal = biological target: Neu5Ac(a2-3)Gal
# Method in brief: as §1
# [19] = biological target: Neu5Ac(a2-3)Gal(b1-3)GalNAc
# Method in brief: as §1
# [20] = biological target: Neu5Ac(a2-3)Gal(b1-3)GalNAc(b1-3)Gal(a1-4)Gal(b1-4)Glc
# Method in brief: as §1
# [21] = biological target: Neu5Ac(a2-3)Gal(b1-3)GalNAc(b1-4)Gal(b1-4)Glc
# Method in brief: as §1
# [22] = biological target: Neu5Ac(a2-3)Gal(b1-3)GalNAc(b1-4)[Neu5Ac(a2-3)]Gal(b1-4)Glc
# Method in brief: as §1
# [23] = biological target: Neu5Ac(a2-3)Gal(b1-3)GalNAc(b1-4)[Neu5Ac(a2-8)Neu5Ac(a2-3)]Gal(b1-4)Glc
# Method in brief: as §1
# [24] = biological target: Neu5Ac(a2-3)Gal(b1-3)GalNAc6S
# Method in brief: as §1
# [25] = biological target: Neu5Ac(a2-3)Gal(b1-3)GlcNAc
# Method in brief: as §1
# [26] = biological target: Neu5Ac(a2-3)Gal(b1-3)GlcNAc(b1-2)Man
# Method in brief: as §1
# [27] = biological target: Neu5Ac(a2-3)Gal(b1-3)GlcNAc(b1-2)Man(a1-3)[GlcNAc(b1-4)][Neu5Ac(a2-3)Gal(b1-3)GlcNAc(b1-2)Man(a1-6)]Man(b1-4)GlcNAc(b1-4)GlcNAc
# Method in brief: as §1
# [28] = biological target: Neu5Ac(a2-3)Gal(b1-3)GlcNAc(b1-2)Man(a1-3)[Neu5Ac(a2-3)Gal(b1-3)GlcNAc(b1-2)Man(a1-6)]Man(b1-4)GlcNAc(b1-4)GlcNAc
# Method in brief: as §1
# [29] = biological target: Neu5Ac(a2-3)Gal(b1-3)GlcNAc(b1-2)[Neu5Ac(a2-3)Gal(b1-3)GlcNAc(b1-4)]Man(a1-6)[Neu5Ac(a2-3)Gal(b1-3)GlcNAc(b1-2)Man(a1-3)]Man(b1-4)GlcNAc(b1-4)GlcNAc
# Method in brief: as §1
# [30] = biological target: Neu5Ac(a2-3)Gal(b1-3)GlcNAc(b1-3)Gal(b1-3)GlcNAc
# Method in brief: as §1
# [31] = biological target: Neu5Ac(a2-3)Gal(b1-3)GlcNAc(b1-3)Gal(b1-4)GlcNAc
# Method in brief: as §1
# [32] = biological target: Neu5Ac(a2-3)Gal(b1-3)GlcNAc(b1-3)GalNAc
# Method in brief: as §1
# [33] = biological target: Neu5Ac(a2-3)Gal(b1-3)GlcNAc(b1-6)GalNAc
# Method in brief: as §1
binder,measurement,setting,value
Pwp1 (Candida glabrata) (protein) MGSSHHHHHHSSGLVPRGSHMASANPISITNVCQFPDNWARTAGFQATTVRLGLTIASNTYKELLNYPGLFNFATQKATVTQPNFSISGFPFFTGLYGLTVWPINLLVELQGYFVPPESGNYTFTLQGSDDAAILFFANPSTFACGSQNDWPQPREADITVTDTLVPSRTLYLVKGVAYPIRIAYYNGSGDGKLNVSFKDPSGTTHTDWKGYVWQYSNTCSTCTYT,glycan array binding signal (z-score),[1],-1.01
same,glycan array binding signal (z-score),[2],-0.159
same,glycan array binding signal (z-score),[3],-0.029
same,glycan array binding signal (z-score),GlcNAc(b1-6)GalNAc,0.644
same,glycan array binding signal (z-score),[4],-0.576
same,glycan array binding signal (z-score),Kdn(a2-3)Gal(b1-3)GalNAc,-2.05
same,glycan array binding signal (z-score),Kdn(a2-3)Gal(b1-3)GlcNAc,0.17
same,glycan array binding signal (z-score),Kdn(a2-3)Gal(b1-4)Glc,-1.05
same,glycan array binding signal (z-score),Kdn(a2-3)Gal(b1-4)GlcNAc,-1.18
same,glycan array binding signal (z-score),[5],0.445
same,glycan array binding signal (z-score),Kdn(a2-6)Gal(b1-4)GlcNAc,1.67
same,glycan array binding signal (z-score),[6],0.737
same,glycan array binding signal (z-score),[7],0.183
same,glycan array binding signal (z-score),Man(a1-2)Man(a1-3)Man,0.697
same,glycan array binding signal (z-score),[8],0.819
same,glycan array binding signal (z-score),[9],0.145
same,glycan array binding signal (z-score),[10],0.286
same,glycan array binding signal (z-score),[11],0.458
same,glycan array binding signal (z-score),[12],0.431
same,glycan array binding signal (z-score),[13],-1.22
same,glycan array binding signal (z-score),Man(a1-3)[Man(a1-6)]Man,-1.51
same,glycan array binding signal (z-score),[14],1.55
same,glycan array binding signal (z-score),[15],-0.487
same,glycan array binding signal (z-score),[16],-1.33
same,glycan array binding signal (z-score),[17],0.507
same,glycan array binding signal (z-score),[18],0.981
same,glycan array binding signal (z-score),Man(a1-6)Man,-1.48
same,glycan array binding signal (z-score),Man(b1-4)GlcNAc,-1.21
same,glycan array binding signal (z-score),MurNAc(b1-4)GlcNAc,-1.73
same,glycan array binding signal (z-score),Neu5Ac(a2-3)Gal,0.738
same,glycan array binding signal (z-score),[19],0.681
same,glycan array binding signal (z-score),[20],1.18
same,glycan array binding signal (z-score),[21],1.46
same,glycan array binding signal (z-score),[22],-0.876
same,glycan array binding signal (z-score),[23],0.23
same,glycan array binding signal (z-score),[24],1.15
same,glycan array binding signal (z-score),[25],-0.533
same,glycan array binding signal (z-score),[26],0.584
same,glycan array binding signal (z-score),[27],0.597
same,glycan array binding signal (z-score),[28],1.89
same,glycan array binding signal (z-score),[29],0.101
same,glycan array binding signal (z-score),[30],-0.231
same,glycan array binding signal (z-score),[31],-1.22
same,glycan array binding signal (z-score),[32],0.585
same,glycan array binding signal (z-score),[33],0.849

# Some of the entries so far, with tabs.
binder	measurement	setting	value
Pwp1 (Candida glabrata) (protein) MGSSHHHHHHSSGLVPRGSHMASANPISITNVCQFPDNWARTAGFQATTVRLGLTIASNTYKELLNYPGLFNFATQKATVTQPNFSISGFPFFTGLYGLTVWPINLLVELQGYFVPPESGNYTFTLQGSDDAAILFFANPSTFACGSQNDWPQPREADITVTDTLVPSRTLYLVKGVAYPIRIAYYNGSGDGKLNVSFKDPSGTTHTDWKGYVWQYSNTCSTCTYT	glycan array binding signal (z-score)	[14]	1.55
same	glycan array binding signal (z-score)	[15]	-0.487
same	glycan array binding signal (z-score)	[16]	-1.33
same	glycan array binding signal (z-score)	[17]	0.507
same	glycan array binding signal (z-score)	[18]	0.981
same	glycan array binding signal (z-score)	Man(a1-6)Man	-1.48
same	glycan array binding signal (z-score)	Man(b1-4)GlcNAc	-1.21
same	glycan array binding signal (z-score)	MurNAc(b1-4)GlcNAc	-1.73
same	glycan array binding signal (z-score)	Neu5Ac(a2-3)Gal	0.738
same	glycan array binding signal (z-score)	[19]	0.681
same	glycan array binding signal (z-score)	[20]	1.18
same	glycan array binding signal (z-score)	[21]	1.46
same	glycan array binding signal (z-score)	[22]	-0.876
